These are yes or no findings as the source states them, for the method shown. For part of these data: Binding seen in cells or lysates may run through a third protein. Some binding calls cover weakened binding; strength is not graded here. Sequences can lack the tags named with a protein.
Key:
[1] = molecular target: T1, Flag-tagged IKKβ (full length) (UniProt O14920); assay: immunoprecipitation and Western blot, transfected 293T cells
T1 sequence (looked up): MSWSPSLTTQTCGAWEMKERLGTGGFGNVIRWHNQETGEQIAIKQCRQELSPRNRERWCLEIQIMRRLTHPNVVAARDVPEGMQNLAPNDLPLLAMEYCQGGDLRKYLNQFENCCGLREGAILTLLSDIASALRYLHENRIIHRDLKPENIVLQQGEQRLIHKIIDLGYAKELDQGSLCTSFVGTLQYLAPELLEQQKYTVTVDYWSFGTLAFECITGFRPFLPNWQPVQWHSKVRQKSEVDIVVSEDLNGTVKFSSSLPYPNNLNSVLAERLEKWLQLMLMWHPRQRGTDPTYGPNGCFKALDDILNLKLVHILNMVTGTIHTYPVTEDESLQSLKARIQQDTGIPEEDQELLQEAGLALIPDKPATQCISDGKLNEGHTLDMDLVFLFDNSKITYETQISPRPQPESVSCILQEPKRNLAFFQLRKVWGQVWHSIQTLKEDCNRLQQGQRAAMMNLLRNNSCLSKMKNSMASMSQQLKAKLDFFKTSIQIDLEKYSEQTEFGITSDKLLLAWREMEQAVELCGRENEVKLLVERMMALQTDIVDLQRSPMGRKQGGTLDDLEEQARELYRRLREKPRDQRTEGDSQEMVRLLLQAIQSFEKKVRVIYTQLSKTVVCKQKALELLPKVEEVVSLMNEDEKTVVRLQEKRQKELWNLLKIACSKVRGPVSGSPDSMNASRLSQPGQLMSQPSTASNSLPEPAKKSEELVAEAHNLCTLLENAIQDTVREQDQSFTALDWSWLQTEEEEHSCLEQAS

[2] = molecular target: T2, IKKβ-KD (amino-terminal kinase domain construct of IKKβ, Flag-tagged) (UniProt O14920); assay: as above
T2 sequence (looked up): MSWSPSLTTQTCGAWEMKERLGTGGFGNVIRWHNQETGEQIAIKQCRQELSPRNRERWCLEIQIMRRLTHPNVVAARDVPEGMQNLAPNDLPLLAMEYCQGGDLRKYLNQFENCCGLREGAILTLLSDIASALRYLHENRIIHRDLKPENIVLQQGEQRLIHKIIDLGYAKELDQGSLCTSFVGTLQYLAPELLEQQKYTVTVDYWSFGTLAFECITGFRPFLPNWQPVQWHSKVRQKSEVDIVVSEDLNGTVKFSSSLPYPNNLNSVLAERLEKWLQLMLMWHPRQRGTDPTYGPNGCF

[3] = molecular target: T2, IKKβ-KD (amino-terminal kinase domain construct of IKKβ, Flag-tagged); assay: restatement of the deletion co-IP results

Measured: binding

B1: NLRC5-D4, containing the CARD domain and LRR-R3 (aa 1-215 plus 1471-1866) (protein, not shown: small tags and cut ends)
chain: MDPVGLQLGNKNLWSCLVRLLTKDPEWLNAKMKFFLPNTDLDSRNETLDPEQRVILQLNKLHVQGSDTWQSFIHCVCMQLEVPLDLEVLLLSTFGYDDGFTSQLGAEGKSQPESQLHHGLKRPHQSCGSSPRRKQCKKQQLELAKKYLQLLRTSAQQRYRSQIPGSGQPHAFHQVYVPPILRRATASLDTPEGAIMGDVKVEDGADVSISDLFNTSQVNLCEDDDASSLLLQSLLLSLSELKTFRLTSSCVSTEGLAHLASGLGHCHHLEELDLSNNQFDEEGTKALMRALEGKWMLKRLDLSHLLLNSSTLALLTHRLSQMTCLQSLRLNRNSIGDVGCCHLSEALRAATSLEELDLSHNQIGDAGVQHLATILPGLPELRKIDLSGNSISSAGGVQLAESLVLCRRLEELMLGCNALGDPTALGLAQELPQHLRVLHLPFSHLGPGGALSLAQALDGSPHLEEISLAENNLAGGVLRFCMELPLLRQIDLVSCKIDNQTAKLLTSSFTSCPALEVILLSWNLLGDEAAAELAQVLPQMGRLKRVDLEKNQITALGAWLLAEGLAQGSSIQVIRLWNNPIPCDMAQHLKSQEPRLDFAFFDNQPQAPWGT
binds: all assays above

B2: NLRC5-D1, containing the CARD and NOD domains (aa 1-517) (protein, not shown: small tags and cut ends)
chain: MDPVGLQLGNKNLWSCLVRLLTKDPEWLNAKMKFFLPNTDLDSRNETLDPEQRVILQLNKLHVQGSDTWQSFIHCVCMQLEVPLDLEVLLLSTFGYDDGFTSQLGAEGKSQPESQLHHGLKRPHQSCGSSPRRKQCKKQQLELAKKYLQLLRTSAQQRYRSQIPGSGQPHAFHQVYVPPILRRATASLDTPEGAIMGDVKVEDGADVSISDLFNTRVNKGPRVTVLLGKAGMGKTTLAHRLCQKWAEGHLNCFQALFLFEFRQLNLITRFLTPSELLFDLYLSPESDHDTVFQYLEKNADQVLLIFDGLDEALQPMGPDGPGPVLTLFSHLCNGTLLPGCRVMATSRPGKLPACLPAEAAMVHMLGFDGPRVEEYVNHFFSAQPSREGALVELQTNGRLRSLCAVPALCQVACLCLHHLLPDHAPGQSVALLPNMTQLYMQMVLALSPPGHLPTSSLLDLGEVALRGLETGKVIFYAKDIAPPLIAFGATHSLLTSFCVCTGPGHQQTGYAFTHLSL
binds: all assays above

B3: NLRC5-D2, containing the LRR-R1 (aa 651-898) (protein, not shown: small tags and cut ends)
chain: LATLTNILEHREAPIHLDFDGCPLEPHCPEALVGCGQIENLSFKSRKCGDAFAEALSRSLPTMGRLQMLGLAGSKITARGISHLVKALPLCPQLKEVSFRDNQLSDQVVLNIVEVLPHLPRLRKLDLSSNSICVSTLLCLARVAVTCPTVRMLQAREADLIFLLSPPTETTAELQRAPDLQESDGQRKGAQSRSLTLRLQKCQLQVHDAEALIALLQEGPHLEEVDLSGNQLEDEGCRLMAEAASQLH
binds: all assays above

B4: NLRC5-D3, containing the link region and LRR-R2 (aa 900-1329) (protein, not shown: small tags and cut ends)
chain: ARKLDLSDNGLSVAGVHCVLRAVSACWTLAELHISLQHKTVIFMFAQEPEEQKGPQERAAFLDSLMLQMPSELPLSSRRMRLTHCGLQEKHLEQLCKALGGSCHLGHLHLDFSGNALGDEGAARLAQLLPGLGALQSLNLSENGLSLDAVLGLVRCFSTLQWLFRLDISFESQHILLRGDKTSRDMWATGSLPDFPAAAKFLGFRQRCIPRSLCLSECPLEPPSLTRLCATLKDCPGPLELQLSCEFLSDQSLETLLDCLPQLPQLSLLQLSQTGLSPKSPFLLANTLSLCPRVKKVDLRSLHHATLHFRSNEEEEGVCCGRFTGCSLSQEHVESLCWLLSKCKDLSQVDLSANLLGDSGLRCLLECLPQVPISGLLDLSHNSISQESALYLLETLPSCPRVREASVNLGSEQSFRIHFSREDQAGKTLR
binds: all assays above
